The list shows a part of the results.
B1: il10ra_site1_sap_15_mot_HHH_b1_07286_af2_000000054_0001_1_19_H_._HHH_b1_00076_0001_0000300011_0000001_0_0001 (protein)
chain: SSSSSSEEEEVEELLEEAKRIPDEREVSKLLLRATRLAIQLQDPELLQLVWRVVKELAERSSSSS
B2: il10ra_site1_normal_mot_HHH_b1_03353_af2_000000170_0001_1_18_H_._HHH_b2_01741_0001_0000300013_0000001_0_af2pred_dldesign_0_af2pred (protein)
chain: SSSSDPRAEVRRLLEEALALAKAGKNEEATALLRRAAELAGELEDPELEALVIETARKILESSSS
B3: il10ra_site1_sap_21_mot_HHH_b1_05056_000000217_0001_1_20_H_._HHH_b1_00422_0001_0000300026_0000002_0_0001 (protein)
chain: SSSSDEEERYARMSLKFVEALIEDGNPEAAREMIRVAEETVKKLGDEEVLEELERLLEELSSSSS
B4: il10ra_site1_normal_mot_e1dd4851c59bc1cdde016f988f6856bd_0001_1_000000200_0001_16_31_H_._HHH_b2_06847_0001_0000700040_0000002_0 (protein)
chain: SSSSERELREMLEFQVRALVQTFGLDEEEREELEELAEELAERGVDPREASLELYELARRLSSSS
B5: il10ra_site1_sap_26_mot_HHH_b2_01583_af2_000000075_0001_44_57_H_._f78fdf3a6b1cc8a037b7c7477770e1ab_0001_0001_0000400021_0000001_1_0001_af2pred_0001 (protein)
chain: SDEEEAERILHKIEELAEEKNDEKIRIAVRFYKELDKAAKELNDEESVKDILYAARALLELVEDS
B6: il10ra_site1_normal_mot_HHH_b1_08697_af2_000000298_0001_1_18_H_._HHH_b2_07088_0001_0000100003_0000002_0_af2pred_dldesign_0_af2pred (protein)
chain: SSSSSKLKKALEYHIEVLKLAKEKGNKDIAKSSYRAAKYLAELLKDPEALKEIEELEKELSSSSS
B7: il10ra_site1_normal_mot_HHH_eva_0077_af2_000000181_0001_44_59_H_._102afcf33129ce529cfca7392e69ce2b_0001_0001_0000200015_0000001_0 (protein)
chain: TEEILEAVEELLRELNSPEAKALLYLIEHQRELGQPPETILRALKAAARILGDPEVLRLIEEAEK
B8: il10ra_site1_sap_15_mot_HHH_b1_02997_000000220_0001_39_52_H_._HHH_b1_04753_0001_0000300022_0000001_1_0001 (protein)
chain: SSSSNREVYELLREAAELHHEGNPEEAEKVLEEAQELAERAGNWLLLAQVRFLQEMIERANSSSS
B9: il10ra_site1_normal_mot_HHH_b1_05357_000000034_0001_23_39_H_._HHH_b2_04745_0001_0000100004_0000001_0_1_af2pred_0001 (protein)
chain: SSSSSELSKRVSELLLRAYALESSGNPEEAQEVLEEARRLVEENNNHRLEHFIRLFERLLSSSSS
B10: il10ra_site1_normal_mot_HHH_b1_02809_af2_000000277_0001_40_57_H_._HHH_b2_02832_0001_0000600039_0000002_0 (protein)
chain: SSSSSDEEVAELYLRAARLIENNDPRAEEVVEELEELAEEKNDPRARLAVQFLKALLESSSSSSS
B11: il10ra_site1_sap_14_mot_4271555111f650dfcc09ceace45bed71_0001_1_000000133_0001_37_51_H_._HHH_b2_01879_af2_0001_0000200003_0000001_0_0001 (protein)
chain: SSSSSEESEIALRFHEAMLRQAIELNNDEAFRSALRALKVLAELYNDPEVRRVIEELEEEFSSSS
B12: il10ra_site1_normal_mot_HHH_b2_03220_af2_000000223_0001_23_40_H_._HHH_b1_06647_af2_0001_0000300016_0000001_0 (protein)
chain: SSSSERERVWELIRRALELLANGNPEEARKVLEEAEELAEELNSENLERQVRLLLEQVEALSSSS
B13: il10ra_site1_sap_15_mot_ems_3hM_3349_af2_000000045_0001_25_42_H_._7f39e2d7389de0c2f60e905c27398b6a_0001_1_0001_0000300016_0000001_0_0001 (protein)
chain: SSSSSSDHRVLRLLMRALRAIFRGDPEEVERLLKEAKEIAEENNDEELEEAIRMVESMLRSSSSS
B14: il10ra_site1_normal_mot_HHH_b1_02997_000000220_0001_39_52_H_._HHH_b2_02536_af2_0001_0000100003_0000002_1_af2pred_dldesign_0_af2pred (protein)
chain: SSSSSSSETEEVLRLIREAAEEEDPEKAKEKLEKALELAKKLGDEILVEVIEYRLSQLSSSSSSS
B15: il10ra_site1_normal_mot_HHH_b2_02337_000000026_0001_38_52_H_._HHH_b2_02232_0001_0000200025_0000002_0 (protein)
chain: SSSSDVEEEVERLIEEAKELLEEGDPRRAAEVLARAVQFAFRSGDQELLRLIWELVQKIANSSSS
B16: il10ra_site1_sap_16_mot_HHH_b1_06789_af2_000000041_0001_1_20_H_._HHH_b2_05269_af2_0001_0000200010_0000002_0_0001 (protein)
chain: SSSSDVEEELRELLKELEELVEEGDEEKFLRVAMEALHLAFQARDEEVLQLLWELAKELASSSSS
B17: il10ra_site1_normal_mot_HHH_b1_00992_000000182_0001_23_40_H_._HHH_b1_03045_0001_0000100005_0000001_0_af2pred_0001 (protein)
chain: SSSSSEEFLRLSLRFAKLLLEDGDPEAARLILRAAVDLAKKEGNEELLKELEELLEEIRGSSSSS
B18: il10ra_site1_sap_23_mot_HHH_b1_04100_af2_000000180_0001_1_19_H_._HHH_b2_02944_0001_0000100014_0000001_0_0001 (protein)
chain: SSSSTDRELAEAALRLIEQLVKNGDPEAAEMHLLALELLVRLTGDPELERILEEAEELVEKSSSS
B19: il10ra_site1_normal_mot_HHH_b2_05591_000000091_0001_1_20_H_._HHH_b1_03846_0001_0000100004_0000002_0_af2pred_0001 (protein)
chain: SSSSSTEEARRALELVREALKIDDPEEVRELLEEAQELAEEGNNEHTLELIEKILKQLDSSSSSS
B20: il10ra_site1_sap_21_mot_HHH_b1_07286_af2_000000054_0001_1_19_H_._HHH_b1_05354_0001_0000100023_0000002_0_0001 (protein)
chain: SSSSDSQEVYELLRRAIELAKEGNPEEARELLKEAEKIAEELNSRVMKVLIEFVEREVEENSSSS
B21: il10ra_site1_sap_21_mot_HHH_b2_00984_000000042_0001_1_20_H_._HHH_b1_03836_0001_0000800039_0000002_0_0001 (protein)
chain: SSSSSEEERYLELTIRFLEWLLRQGDEESIKRMLRALEDIARRLGDEEAEEVVEEVRRELSSSSS
B22: il10ra_site1_normal_mot_HHH_b2_00622_af2_000000153_0001_40_57_H_._HHH_b1_07280_0001_0000600025_0000002_0_af2pred_0001 (protein)
chain: SSSSDVERSVEILREAAEIALKLGDPERARLALEDALVAAREAGNPELAEEIEKLIEEVERSSSS
B23: il10ra_site1_sap_16_mot_HHH_b2_04251_af2_000000037_0001_42_56_H_._HHH_b1_07004_0001_0000200017_0000001_0_0001 (protein)
chain: SSSSDVRERAARVAIEVLRIAFQQSDPEALRAVWELFRRIIEEGDPELLEELEQLLEELRSSSSS
B24: il10ra_site1_normal_mot_HHH_b2_04680_000000215_0001_1_16_H_._HHH_b1_03846_0001_0000500024_0000001_0 (protein)
chain: SSSSSDEEVREAYELAREAFHIEDPEEVRRLLEEALELAEEGNNFALLFAIRLALRDLNSSSSSS

Target: il10ra, Q13651
Assay: yeast display titration

Apparent Kd, inactive:
B1 no binding seen
B2 no binding seen
B3 no binding seen
B4 no binding seen
B5 no binding seen
B6 no binding seen
B7 no binding seen
B8 no binding seen
B9 no binding seen
B10 no binding seen
B11 no binding seen
B12 no binding seen
B13 no binding seen
B14 no binding seen
B15 no binding seen
B16 no binding seen
B17 no binding seen
B18 no binding seen
B19 no binding seen
B20 no binding seen
B21 no binding seen
B22 no binding seen
B23 no binding seen
B24 no binding seen

Retrieved one by one from above:
Apparent Kd, inactive:
B2 no binding seen
B14 no binding seen

From article PMC10163288
